Results are given in words; binding and its absence hold for the method and conditions named. Binding seen in cells or lysates may run through a third protein. Here binding means that the protein was enriched with, or labelled near, the bait; the list need not be complete. Values belong to the binder of their own block, whether it stands above or below them.
Biological target: ELKS-1::TurboID::mNeongreen fusion protein (elks-1(syb1710) knock-in) (C. elegans)
Experiment: proximity labelling

binding: binds
B1: SAD-1/BRSK1 (protein, UniProt Q19469 1-914)
chain: MFEALKEVLGEINSKLAAVNNELSSKIMSENIVSTRPVAQAQYCGPYKLEKTLGKGQTGLVKTGTHCITGRKVAIKIVNKEKLSESVLQKVEREIAIMKLIEHPHVLHLYDVYENKKYLYLLLEHVSGGELFDYLVRKGRLMSKEARKFFRQIISALDFCHAHNICHRDLKPENLLLDERNNIKVADFGMASLQVEGSMLETSCGSPHYACPEVIRGEKYDGRKADVWSCGVILYALLVGALPFDDDNLRNLLEKVKRGVFHIPHFVPADVQSLLRAMIEVDPGKRYSLADVFKHPWVSGTTKADPELELPMSQVVQTHVIPGEDSIDPDVLRHMNCLGCFKDKQKLINELLSPKHNTEKMVYFLLLDRKRRRPAQEDDTEIVLRGAAQNNDPPKKRTDSSRTSRYPMGSIADGSPINPRKTYGRNQKSGRHSSLGGSPTESPRSSTRDLFGSSSSGSYSARAGEDRDRGRSASRSTNSYHYYTQPVDPQTLAEAARHVRDAQERRESRDSGRGSSRKESKDRSDKSASSSSCKNDASSTSSVPHKYSPPSVMSESVVVSSSTMNSTNSSTNSLIAGNSQTSIGSTSGPWRSKLNNIKNSFLGTPRFHRRKMSNGTAESDSEDSQMIDTTDLVKKSWFGSLASSMSVERDDTHCVPVQGKTLNSIKAELIRAFLQIHELSHSVVGQNCFRVEYKRGPTVGGSVFSRGIKMNVDIIPSPQQVVIAGETPTYVVQFVLLAGPVRRFKRLVEHLSAILQNSTQQRADRQQQAALMVRPRRLSDSSVGSACSDSESNASSINMIARHSDKTETTSATSSDPYGPSPSMRSVGSGTANSYKSPTPHRRNTTAVTASSSSASNRYGPSSSSSGSYSNNADYSYHPEYSQRSNGSSAPKNQYSPGSQRSFAFSMFNKADKV

binding: binds
B2: SYD-1/SYDE1 (protein, UniProt Q86NH1 1-987)
chain: MLISTSLKFLTMLTSNGFGGTNPPKGMPYPPTYLYTEEPQNECCCCWLCRLLCCCSPVDQTASRSRMNASQPPPGGGGRLPDEVFRKITAVDQGQSTLTQSGIQGLSARTLSSEPRGDLVFQLVEIIKKPGQSLGLYLREGNGKDRSDGVFVSRFGDNSELAKYGEVMRPGDEILTINNVEVSMMSIDDVVLILSIPRRLLLRIRYSKSMRHEIISSRSRESERPVVVFHKYDDRRDSETNAPILSQPTSTANTWLGKKSRQQMEEMRNATTSSTLRTHASTSSPRNHFAPRLVNGHSHSIGVPSASTTSHDHQYQRFASEPSDSVSRTARVPPPRLASATVRRTESFNSAPGVSTSAPMYTLPRSSTAVPPPDILGSIPYSARDPLMRSSADLPYDPMTGRLSSSVPTDPLLSRSLCSPILPRTLRQANDSNKSNSLPRRRIMTGGRNVKWRNDVVSTSDLCGEESDGAISAPEYSSPPFSRLTQQQQFRLSNGSPGRTVNDIFSAAEYRNWAGPYDPRGMYGPFPPGQRATRWSHTYGEQRAPRTSSLPGRTVLAQSLVGSPVLPRHPPPIVQDRPSAVFDRYHVSPLMNRRAPLRAAGPGINVDRLSVSSLTGILYVHIVEGRGLKIPEKQKGLTEEMYCVLEVDEQHRARTGVSTIEQKFKWRETFHIDVVNATVSNFFVYSWHPQFRHKLCHKGSLKLLEAFVVDQLNDDRVFALNLEPRGQLIVRIGFHDLQAVFRRTVNPRLNGVFGISLSRLVQRERRDTPIVLTRLIQEIEKRGVDYSGLYVLCGSVEKKKMLRAELESNPLGTELAAESIPDTNVIACLIKDFLRELPEPLISPQIHGMLLEAASVALPNDVQTNRHLVLKIIDCLQLSAKNCLLLVLDHLSTVLCSSPHNGLTPTRLSLIFAPLLFFCLDTFSPYTISPTSKMAAVRTLDINQASSSLQMILSIWPSRVNSESGSDSPATTCQKGGVIAYVSESQC

Reference: paper doi:10.1101/2021.04.01.438103
